Measurements published in paper PMC6451337, “The Toxoplasma gondii dense granule protein TgGRA3 interacts with host Golgi and dysregulates anterograde transport” (Biology Open, 2019).
These are yes or no findings as the source states them, for the method shown.

Biological target: GRA3_HA-Δ110-128 (Toxoplasma gondii) (UniProt B6KEU8)
Experiment: native gel or EMSA; proteins cleaved from glutathione-Sepharose beads with PreScission protease in 25 mM Tris pH 8, 1 mM DTT, 0.5 mM PMSF, 1 mM EDTA; 10% Tris-glycine native gel, unheated against heated; Coomassie Blue stain and Western blot; both purified

GRA3_HA-Δ110-128 (from UniProt B6KEU8 43-161) (domain or fragment)
binding: no binding
